Assay: Film formation in severe conditions (4° C.)
Format: physicochemical
Conditions: tin plated steel, humid thickness 200 μm

| Compound | Film Formation at 4° C.: Observation | further results |
| --- | --- | --- |
| COC(=O)CCCCC(=O)N(C)C [Ester amide, Hexanoic acid, 6-(dimethylamino)-6-oxo, methyl ester] | general cracks |  |
| CCCCN1CCCC1=O [NBP, N-butyl pyrrolidone, reference compound] | OK (no cracks) |  |
| CN1CCCC1=O [NMP, N-methyl pyrrolidone, reference compound] | micro cracks |  |
| CCCCN1CCCCCC1=O [N—BuCPL, N-butyl caprolactam] | no cracks detected |  |
| CCN1CCCCCC1=O [N—EtCPL, N-ethyl caprolactam] |  | Film Formation at 4° C.: Observation (listed as N-ethyl CPL): no cracks detected; Film Formation at 4° C.: Observation (listed as N-ethyl CPL (NE CPL)): OK (no cracks) |
| CN1CCCCCC1=O [N—MeCPL, N-methyl caprolactam] |  | Film Formation at 4° C.: Observation (listed as N-methyl CPL): no cracks detected; Film Formation at 4° C.: Observation (listed as N-methyl CPL (NM CPL)): OK (no cracks) |
